Source: paper PMC10951364
These are yes or no findings as the source states them, for the method shown. Binding seen in cells or lysates may run through a third protein. Some binding calls cover weakened binding; strength is not graded here.

Sequences of proteins named here, by UniProt entry; tags and fusion partners are left off.
UniProt Q7Z6E9: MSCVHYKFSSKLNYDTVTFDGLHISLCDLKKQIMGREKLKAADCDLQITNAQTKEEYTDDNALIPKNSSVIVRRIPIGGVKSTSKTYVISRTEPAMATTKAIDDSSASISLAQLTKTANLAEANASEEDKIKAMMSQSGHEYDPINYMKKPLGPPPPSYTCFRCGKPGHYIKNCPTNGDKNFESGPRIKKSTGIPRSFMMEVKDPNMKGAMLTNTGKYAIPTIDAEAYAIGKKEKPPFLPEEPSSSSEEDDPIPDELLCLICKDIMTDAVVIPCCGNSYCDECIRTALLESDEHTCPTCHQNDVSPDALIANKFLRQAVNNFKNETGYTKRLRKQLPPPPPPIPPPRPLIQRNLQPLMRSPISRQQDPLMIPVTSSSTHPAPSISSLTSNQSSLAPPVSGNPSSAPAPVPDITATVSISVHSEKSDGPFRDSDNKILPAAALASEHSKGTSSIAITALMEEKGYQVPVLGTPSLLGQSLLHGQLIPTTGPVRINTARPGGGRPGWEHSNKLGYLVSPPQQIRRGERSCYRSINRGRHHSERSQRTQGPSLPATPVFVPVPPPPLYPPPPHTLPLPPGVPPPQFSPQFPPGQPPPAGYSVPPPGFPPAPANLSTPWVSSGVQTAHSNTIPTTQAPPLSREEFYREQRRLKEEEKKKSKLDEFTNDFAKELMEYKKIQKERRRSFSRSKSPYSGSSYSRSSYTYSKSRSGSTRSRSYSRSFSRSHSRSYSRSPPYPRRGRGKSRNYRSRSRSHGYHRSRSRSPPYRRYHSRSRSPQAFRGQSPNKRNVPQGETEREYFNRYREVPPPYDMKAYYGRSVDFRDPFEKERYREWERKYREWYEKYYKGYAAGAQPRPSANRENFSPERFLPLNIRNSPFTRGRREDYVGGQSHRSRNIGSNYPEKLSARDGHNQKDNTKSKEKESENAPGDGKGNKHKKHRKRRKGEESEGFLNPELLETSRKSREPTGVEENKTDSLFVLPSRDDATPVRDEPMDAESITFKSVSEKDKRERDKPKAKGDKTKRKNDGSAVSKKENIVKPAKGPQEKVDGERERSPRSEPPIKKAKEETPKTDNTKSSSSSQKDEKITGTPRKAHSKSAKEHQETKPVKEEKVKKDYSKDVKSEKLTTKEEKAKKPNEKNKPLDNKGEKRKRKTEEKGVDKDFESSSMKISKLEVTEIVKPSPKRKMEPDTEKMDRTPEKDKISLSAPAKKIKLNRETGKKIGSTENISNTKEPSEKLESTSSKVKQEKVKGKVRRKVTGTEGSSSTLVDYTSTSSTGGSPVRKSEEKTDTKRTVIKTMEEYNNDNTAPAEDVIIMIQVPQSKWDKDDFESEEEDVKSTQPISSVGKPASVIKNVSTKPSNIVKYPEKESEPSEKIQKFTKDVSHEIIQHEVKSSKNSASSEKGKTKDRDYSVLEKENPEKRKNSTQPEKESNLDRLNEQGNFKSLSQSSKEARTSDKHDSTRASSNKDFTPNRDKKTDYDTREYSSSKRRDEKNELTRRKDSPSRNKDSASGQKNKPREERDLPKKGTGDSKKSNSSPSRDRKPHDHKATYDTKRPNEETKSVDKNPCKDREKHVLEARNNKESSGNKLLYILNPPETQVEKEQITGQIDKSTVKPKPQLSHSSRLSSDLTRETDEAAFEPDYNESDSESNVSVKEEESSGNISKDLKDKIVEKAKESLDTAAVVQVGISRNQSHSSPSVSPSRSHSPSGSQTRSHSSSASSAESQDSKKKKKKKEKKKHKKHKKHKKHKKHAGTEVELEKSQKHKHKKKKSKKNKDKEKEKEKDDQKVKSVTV

B1: Cleavage and Polyadenylation Specific Factor 3 (CPSF3) (protein, UniProt Q9UKF6 1-684)
chain: MSAIPAEESDQLLIRPLGAGQEVGRSCIILEFKGRKIMLDCGIHPGLEGMDALPYIDLIDPAEIDLLLISHFHLDHCGALPWFLQKTSFKGRTFMTHATKAIYRWLLSDYVKVSNISADDMLYTETDLEESMDKIETINFHEVKEVAGIKFWCYHAGHVLGAAMFMIEIAGVKLLYTGDFSRQEDRHLMAAEIPNIKPDILIIESTYGTHIHEKREEREARFCNTVHDIVNRGGRGLIPVFALGRAQELLLILDEYWQNHPELHDIPIYYASSLAKKCMAVYQTYVNAMNDKIRKQININNPFVFKHISNLKSMDHFDDIGPSVVMASPGMMQSGLSRELFESWCTDKRNGVIIAGYCVEGTLAKHIMSEPEEITTMSGQKLPLKMSVDYISFSAHTDYQQTSEFIRALKPPHVILVHGEQNEMARLKAALIREYEDNDEVHIEVHNPRNTEAVTLNFRGEKLAKVMGFLADKKPEQGQRVSGILVKRNFNYHILSPCDLSNYTDLAMSTVKQTQAIPYTGPFNLLCYQLQKLTGDVEELEIQEKPALKVFKNITVIQEPGMVVLEWLANPSNDMYADTVTTVILEVQSNPKIRKGAVQKVSKKLEMHVYSKRLEIMLQDIFGEDCVSVKDDSILSVTVDGKTANLNLETRTVECEEGSEDDESLREMVELAAQRLYEALTPVH
B2: CPSF2 (protein, UniProt Q9P2I0 1-782)
chain: MTSIIKLTTLSGVQEESALCYLLQVDEFRFLLDCGWDEHFSMDIIDSLRKHVHQIDAVLLSHPDPLHLGALPYAVGKLGLNCAIYATIPVYKMGQMFMYDLYQSRHNTEDFTLFTLDDVDAAFDKIQQLKFSQIVNLKGKGHGLSITPLPAGHMIGGTIWKIVKDGEEEIVYAVDFNHKREIHLNGCSLEMLSRPSLLITDSFNATYVQPRRKQRDEQLLTNVLETLRGDGNVLIAVDTAGRVLELAQLLDQIWRTKDAGLGVYSLALLNNVSYNVVEFSKSQVEWMSDKLMRCFEDKRNNPFQFRHLSLCHGLSDLARVPSPKVVLASQPDLECGFSRDLFIQWCQDPKNSIILTYRTTPGTLARFLIDNPSEKITEIELRKRVKLEGKELEEYLEKEKLKKEAAKKLEQSKEADIDSSDESDIEEDIDQPSAHKTKHDLMMKGEGSRKGSFFKQAKKSYPMFPAPEERIKWDEYGEIIKPEDFLVPELQATEEEKSKLESGLTNGDEPMDQDLSDVPTKCISTTESIEIKARVTYIDYEGRSDGDSIKKIINQMKPRQLIIVHGPPEASQDLAECCRAFGGKDIKVYMPKLHETVDATSETHIYQVRLKDSLVSSLQFCKAKDAELAWIDGVLDMRVSKVDTGVILEEGELKDDGEDSEMQVEAPSDSSVIAQQKAMKSLFGDDEKETGEESEIIPTLEPLPPHEVPGHQSVFMNEPRLSDFKQVLLREGIQAEFVGGVLVCNNQVAVRRTETGRIGLEGCLCQDFYRIRDLLYEQYAIV
B3: CSTF2 (protein, UniProt P33240 1-577)
chain: MAGLTVRDPAVDRSLRSVFVGNIPYEATEEQLKDIFSEVGPVVSFRLVYDRETGKPKGYGFCEYQDQETALSAMRNLNGREFSGRALRVDNAASEKNKEELKSLGTGAPVIESPYGETISPEDAPESISKAVASLPPEQMFELMKQMKLCVQNSPQEARNMLLQNPQLAYALLQAQVVMRIVDPEIALKILHRQTNIPTLIAGNPQPVHGAGPGSGSNVSMNQQNPQAPQAQSLGGMHVNGAPPLMQASMQGGVPAPGQMPAAVTGPGPGSLAPGGGMQAQVGMPGSGPVSMERGQVPMQDPRAAMQRGSLPANVPTPRGLLGDAPNDPRGGTLLSVTGEVEPRGYLGPPHQGPPMHHVPGHESRGPPPHELRGGPLPEPRPLMAEPRGPMLDQRGPPLDGRGGRDPRGIDARGMEARAMEARGLDARGLEARAMEARAMEARAMEARAMEARAMEVRGMEARGMDTRGPVPGPRGPIPSGMQGPSPINMGAVVPQGSRQVPVMQGTGMQGASIQGGSQPGGFSPGQNQVTPQDHEKAALIMQVLQLTADQIAMLPPEQRQSILILKEQIQKSTGAP

molecular target: RB Binding Protein 6, Ubiquitin Ligase (RBBP6), HA-tagged (human) (UniProt Q7Z6E9); assay: co-IP; HEK293T cells transfected with HA-RBBP6 for 48 h; NP-40 lysis buffer; one milligram of protein with anti-HA beads for 1 h at room temperature; beads washed five times with lysis buffer; immunoblotting

binding, binds:
B1, B2, B3
